Test results as given in US20250283049A1, “AGENT FOR CULTURING ORGANOID IN ABSENCE OF EXTRACELLULAR MATRIX” (KEIO UNIVERSITY, priority 2022, published 2025).

What was measured:
[1] = tested on: human lower gastrointestinal organoids; assay: Organoid morphology by immunostaining; organoids established in Matrigel, cultured without Matrigel with Lats-IN; assay type: cell-based; settings: absence of Matrigel; Lats-IN 10 μM
[2] = tested on: human large intestine-derived organoids; assay: Morphology by immunostaining of organoids established without Matrigel with Lats-IN, 18 passages; assay type: cell-based; settings: established without Matrigel with Lats-IN 10 μM, day 7

O=C(N=c1sccn1Cc1ccccc1)c1c[nH]c2ncccc12 [Lats-IN]
organoid morphology [1]: spherical morphology in which cells are multilayered and the apical polarity of the epithelial cells was not maintained
organoid morphology [2]: spherical morphology in which cells are multilayered and the apical polarity of the epithelial cells was not maintained
